Assay results from paper PMC9934407, “Comprehensive structural characterization of the human AAA+ disaggregase CLPB in the apo- and substrate-bound states reveals a unique mode of action driven by oligomerization” (PLOS Biology, 2023).
No constants are given. Whether binding was seen depends on the method and setting. Binding can be weak; no strength is given.

Target: T1, human CLPB (isoform 2), construct CLPB-N127, wild type (human) (UniProt Q9H078)
T1 sequence: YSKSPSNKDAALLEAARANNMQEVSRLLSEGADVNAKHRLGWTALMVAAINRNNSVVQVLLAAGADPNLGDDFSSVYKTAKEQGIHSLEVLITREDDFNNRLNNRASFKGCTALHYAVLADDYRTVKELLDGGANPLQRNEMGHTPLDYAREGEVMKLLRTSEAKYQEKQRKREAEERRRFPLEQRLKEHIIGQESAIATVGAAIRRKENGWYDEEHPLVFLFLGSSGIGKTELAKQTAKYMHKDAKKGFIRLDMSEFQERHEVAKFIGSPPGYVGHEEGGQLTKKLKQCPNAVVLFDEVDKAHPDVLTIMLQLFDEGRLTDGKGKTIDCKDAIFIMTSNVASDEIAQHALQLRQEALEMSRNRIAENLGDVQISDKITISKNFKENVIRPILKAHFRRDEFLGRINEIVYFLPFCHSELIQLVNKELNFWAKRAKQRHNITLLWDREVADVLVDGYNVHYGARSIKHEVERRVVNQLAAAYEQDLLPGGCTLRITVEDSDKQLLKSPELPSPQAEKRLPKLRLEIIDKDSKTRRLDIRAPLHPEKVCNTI
Experiment: cryo-EM 2D classification; CLPB-casein-ATPγS dataset: 20 μL casein (4.0 mg/mL) added to 40 μL CLPB (2.0 mg/mL) before vitrification, excess ATPγS; both purified

- binding: binds
Substance: casein (model substrate)
